The target in the experiment is T1, GTPase-activating protein SH3 domain-binding protein 2 (G3BP2), endogenous in 293T cells (human (endogenous in HEK293T)) (UniProt Q9UN86).
T1 sequence: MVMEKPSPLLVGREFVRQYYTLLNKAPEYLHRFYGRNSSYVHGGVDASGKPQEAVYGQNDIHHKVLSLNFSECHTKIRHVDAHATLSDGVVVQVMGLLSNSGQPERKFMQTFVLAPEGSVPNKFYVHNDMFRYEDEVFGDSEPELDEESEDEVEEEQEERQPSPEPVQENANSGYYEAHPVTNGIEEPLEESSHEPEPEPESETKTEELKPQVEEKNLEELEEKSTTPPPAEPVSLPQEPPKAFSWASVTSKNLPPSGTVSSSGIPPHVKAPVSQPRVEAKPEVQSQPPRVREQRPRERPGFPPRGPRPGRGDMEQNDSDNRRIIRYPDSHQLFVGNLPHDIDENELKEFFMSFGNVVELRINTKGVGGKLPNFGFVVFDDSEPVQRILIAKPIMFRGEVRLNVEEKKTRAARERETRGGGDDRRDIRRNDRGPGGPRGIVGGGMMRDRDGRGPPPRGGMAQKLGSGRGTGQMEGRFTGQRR
In words: co-IP; […] western blot, grayscale analysis.

Protein sequences, listed by entry. Tags and fused reporters are not part of them.
UniProt Q14258: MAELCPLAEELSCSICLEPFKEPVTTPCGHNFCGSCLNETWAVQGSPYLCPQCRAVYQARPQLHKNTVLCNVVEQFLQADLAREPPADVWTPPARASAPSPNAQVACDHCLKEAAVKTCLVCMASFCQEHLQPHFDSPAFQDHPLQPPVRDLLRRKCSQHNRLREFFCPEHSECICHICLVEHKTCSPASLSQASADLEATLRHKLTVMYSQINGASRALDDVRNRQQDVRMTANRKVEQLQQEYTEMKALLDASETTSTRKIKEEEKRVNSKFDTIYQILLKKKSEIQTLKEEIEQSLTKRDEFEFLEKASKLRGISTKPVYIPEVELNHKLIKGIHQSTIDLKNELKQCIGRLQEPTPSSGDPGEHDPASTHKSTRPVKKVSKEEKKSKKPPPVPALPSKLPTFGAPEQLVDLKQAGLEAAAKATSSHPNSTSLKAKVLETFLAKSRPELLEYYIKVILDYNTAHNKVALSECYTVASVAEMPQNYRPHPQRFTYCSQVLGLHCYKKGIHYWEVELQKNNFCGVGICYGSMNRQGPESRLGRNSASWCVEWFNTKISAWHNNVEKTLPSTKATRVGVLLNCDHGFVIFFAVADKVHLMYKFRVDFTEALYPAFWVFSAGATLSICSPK

Results are given in words; binding and its absence hold for the method and conditions named. Binding seen in cells or lysates may run through a third protein. Some results given as binding are weak or reduced against the parent protein; the word gives no strength.

In the case of “tripartite motif containing 25 (TRIM25), endogenous in 293T cells (from UniProt Q14258 1-630)”, the binding result was “binds”.

The values above are taken from PMC9781323.
